Measured data: PubChem BioAssay AID504791 (Drosophila RNAi Screening Center, 2011)

- Purpose: 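Genes of the fly required for silencing by miRNA, siRNA or endo-siRNA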 (primary screen)
- System: Drosophila S2-derived reporter cells
- Reagent: long dsRNA against Drosophila genes, about 150-250 ng dsRNA per well (siRNA assay); about 80-120 ng (miRNA assay)
- Duration: about 5 days (siRNA assay); about 4 days (miRNA assay)
- Conditions: copper sulfate induction of reporters: 25 µM (siRNA assay); 200 mM stated (miRNA assay), 1-2 days before reading
- Measured: 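Per-well ratio of Renilla over firefly light, expressed relative to that plate's average ratio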
- Active means: 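First-pass picks had plate-scaled ratios over 1.5 for the siRNA assay, over 1.6 for the miRNA assay, or under 0.6; two distinct dsRNAs had to score alike on retest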
In all, the deposit lists about 23,000 reagents; shown is an unselected part of those with a known target gene and a result. In the full data, 199 (0.86%) got an active call. 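Plate-scaled ratios behind the calls are not deposited; printed light signals are raw; many rows marked increased or decreased are still called inactive.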 A number with no mark means an inactive call. Names joined by + are all predicted targets of the reagent. Not given: the direction of the score.

gene	dsRNA	stable siRNA reporter change	miRNA reporter change	stable assay Renilla, run 1 (luminescence)	stable assay firefly, run 1 (luminescence)
Galphai	DRSC11168			9847	4.75e5
Gr28b	DRSC02291			7324	3.65e5
Gr28b	DRSC02292			7514	3.96e5
Or85c	DRSC16766			6240	3.54e5
CG34354	DRSC13863			6491	4.93e5
CG34354	DRSC14515			4938	2.52e5
CG34354	DRSC14558	reporter ratio raised past the hit cutoff		5871	2.09e5
CG34354	DRSC15645			6691	3.95e5
CG34354	DRSC23054			4159	3.34e5
aub	DRSC03486			2.18e5	1.28e6
xit	DRSC18364			7847	5.86e5
Amy-d + Amy-p	DRSC21242			5524	4.02e5
CG42254 (retired record)	DRSC06194			6340	3.41e5
Elo68alpha	DRSC22725			4136	4.61e5
CG11635 + spaw	DRSC06075			6530	3.51e5
CG8547	DRSC07211			8220	3.24e5
Doa	DRSC13892			5099	4.18e5
Doa	DRSC13893			3871	3.58e5
Doa	DRSC13895			2851	3.00e5
Doa	DRSC13896			5298	3.35e5
Doa	DRSC13897			4656	4.03e5
Doa	DRSC16650			9318	4.78e5
ast	DRSC00803			12678	1.41e5
CG4612	DRSC04478			1.30e5	1.39e6
trc	DRSC11406			7246	4.83e5
ORY	DRSC22883			3251	4.41e5
Mpv17	DRSC17198			5987	3.32e5
CG33758	DRSC05158			5939	5.10e5
mIF2	DRSC14510			6598	3.77e5
Mlc-c	DRSC18683			7923	5.59e5
CG15515	DRSC15054			6051	3.29e5
4E-T	DRSC17201			7323	4.44e5
4E-T	DRSC17208			5502	4.27e5
CG17994	DRSC04877			8259	4.20e5
dpr8	DRSC19406			4952	3.85e5
dpr8	DRSC19600			5020	4.00e5
dpr8	DRSC19938			5116	3.92e5
dpr8	DRSC19939	reporter ratio raised past the hit cutoff		6631	74889
CG1288	DRSC12538			6904	3.80e5
CG14331	DRSC14810			7100	4.03e5
RpL5	DRSC03801	reporter ratio raised past the hit cutoff (active)		6350	2.30e5
MED24	DRSC10944			4168	2.01e5
Nagk	DRSC15994			8424	4.25e5
CG30280	DRSC21761			8943	4.45e5
CG2898	DRSC18238			4879	4.82e5
Amyrel	DRSC05920			11423	4.27e5
CG6937 + btn	DRSC16917			6551	3.92e5
mRpS29	DRSC04398			60878	6.00e5
CG34375	DRSC14684			6775	3.98e5
CG34375	DRSC14685			6723	2.84e5
tapas	DRSC05950			9810	3.27e5
snky	DRSC09838			6522	4.00e5
CG12158	DRSC22933			5722	6.30e5
y	DRSC18853			8383	6.06e5
CG14042 + SP555	DRSC02367			7187	3.37e5
CG14042 + SP555	DRSC03428			6702	3.66e5
CG4714	DRSC06883			7399	5.54e5
Meltrin	DRSC16274			10228	4.40e5
Meltrin	DRSC21693			9399	4.64e5
CG33286	DRSC11691			7490	3.82e5
CG3862	DRSC00631			9632	2.37e5
l(1)10Bb	DRSC20346	reporter ratio raised past the hit cutoff (active)		9950	4.90e5
CG9928	DRSC03274			6944	2.79e5
eIF3k	DRSC04056		reporter ratio lowered past the hit cutoff	14398	5.36e5
Hers + amn	DRSC20306			6171	4.44e5
kud	DRSC11086			8191	4.59e5
Debcl	DRSC04965			37243	1.37e6
Art3	DRSC16065			8051	4.34e5
CG9399	DRSC16488			6882	4.06e5
Fbxl4	DRSC19805			8039	4.97e5
GstZ1	DRSC16478			7850	3.91e5
Tom20	DRSC10899			7714	2.92e5
Sec15	DRSC16179			6566	4.22e5
Sec61beta	DRSC07548			4656	3.42e5
Sec61beta	DRSC21512			8165	4.15e5
JhI-21	DRSC02161			49800	5.88e5
rho	DRSC08734			5459	3.65e5
AIMP2	DRSC09877			9185	3.57e5
Slc25A46a	DRSC20125			8236	5.61e5
tej	DRSC07219			6968	4.41e5
Hr38	DRSC03345	reporter ratio raised past the hit cutoff		5482	1.82e5
Hr38	DRSC23230			6034	3.78e5
lncRNA:CR42646	DRSC04759			4275	3.44e5

Records listed so far whose gene name begins with O or o:
gene	dsRNA	stable siRNA reporter change	miRNA reporter change	stable assay Renilla, run 1 (luminescence)	stable assay firefly, run 1 (luminescence)
Or85c	DRSC16766			6240	3.54e5
ORY	DRSC22883			3251	4.41e5
